Entries after “also recorded” stand apart in the source; their conditions may differ. For at least one compound, name, drawing or mass did not settle the structure.
Experiments:
HCMV, strain AD-169 = assay: Virucidal test versus HCMV, strain AD-169; assay type: cell-based, human cytomegalovirus; conditions: for Virus Reduction: one hour incubation at 37° C.
[1] = system: human cytomegalovirus (HCMV), strain AD-169; assay: Antiviral test (plaque reduction) versus HCMV, strain AD-169, in MRC-5 cells; assay type: cell-based; conditions: for Percent Inhibition of Plaque Numbers (Compared to Virus Controls): Example 2; for Activity against HCMV: statement in words on the plaque reduction results
[2] = system: murine cytomegalovirus, strain Smith MSGV; assay: Antiviral test (plaque reduction) versus murine cytomegalovirus, strain Smith MSGV, in 3T3 cells; assay type: cell-based; conditions: in words

## Cc1cc(O)c2c(c1)C(C1c3cc(C)cc(O)c3C(=O)c3c(O)cc(O)cc31)c1cc(O)cc(O)c1C2=O (stereo not drawn) [Emodin Bianthrone (mixed), emodin bianthrone]
HCMV, strain AD-169; final concentration 0.32 μg/ml
  Virus Reduction: 10^0.10 pfu/ml
HCMV, strain AD-169; final concentration 1.0 μg/ml
  Virus Reduction: 10^0.10 pfu/ml
HCMV, strain AD-169; final concentration 3.2 μg/ml
  Virus Reduction: 10^0.48 pfu/ml

## Cc1cc(O)c2c(=O)c3c(O)cc(O)c4c5c(O)cc(O)c6c(=O)c7c(O)cc(C)c8c1c2c(c34)c(c78)c65 [Hypericin, hypericin]
HCMV, strain AD-169; in words
  Virucidal activity against HCMV: strong virucidal activity
[1]; 3.2 μg/ml
  Percent Inhibition of Plaque Numbers (Compared to Virus Controls): toxic
[1]; 10 μg/ml, ethanol stock (protohypericin in DMSO), cells exposed 6 or more days
  Percent Inhibition of Plaque Numbers (Compared to Virus Controls): toxic
[1]
  Activity against HCMV: good biological activity
[1]; listed as hypericin
  Activity against HCMV: anti-HCMV activity; also recorded: show activity
[2]
  In vitro activity against murine cytomegalovirus: has in vitro activity

Source: patent publication US6686393B1, “Pharmaceutical compositions having antiviral activity against human cytomegalovirus” (Murdock International Corporation, priority 1990, dated 2004)
